T1: PHF6 (human (endogenous in THP-1)) (UniProt Q8IWS0)
T1 sequence: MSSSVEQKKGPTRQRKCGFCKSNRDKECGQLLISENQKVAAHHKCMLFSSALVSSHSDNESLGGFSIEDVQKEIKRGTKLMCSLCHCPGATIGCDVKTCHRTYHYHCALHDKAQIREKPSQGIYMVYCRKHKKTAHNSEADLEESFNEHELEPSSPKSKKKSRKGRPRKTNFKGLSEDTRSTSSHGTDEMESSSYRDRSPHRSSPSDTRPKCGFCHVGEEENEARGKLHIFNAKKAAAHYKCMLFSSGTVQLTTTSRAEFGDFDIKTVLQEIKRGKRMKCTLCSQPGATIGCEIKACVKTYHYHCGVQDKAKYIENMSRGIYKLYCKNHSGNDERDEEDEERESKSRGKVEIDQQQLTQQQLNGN

Chains of the proteins cited; added tags and fusions are not shown.
UniProt P17844: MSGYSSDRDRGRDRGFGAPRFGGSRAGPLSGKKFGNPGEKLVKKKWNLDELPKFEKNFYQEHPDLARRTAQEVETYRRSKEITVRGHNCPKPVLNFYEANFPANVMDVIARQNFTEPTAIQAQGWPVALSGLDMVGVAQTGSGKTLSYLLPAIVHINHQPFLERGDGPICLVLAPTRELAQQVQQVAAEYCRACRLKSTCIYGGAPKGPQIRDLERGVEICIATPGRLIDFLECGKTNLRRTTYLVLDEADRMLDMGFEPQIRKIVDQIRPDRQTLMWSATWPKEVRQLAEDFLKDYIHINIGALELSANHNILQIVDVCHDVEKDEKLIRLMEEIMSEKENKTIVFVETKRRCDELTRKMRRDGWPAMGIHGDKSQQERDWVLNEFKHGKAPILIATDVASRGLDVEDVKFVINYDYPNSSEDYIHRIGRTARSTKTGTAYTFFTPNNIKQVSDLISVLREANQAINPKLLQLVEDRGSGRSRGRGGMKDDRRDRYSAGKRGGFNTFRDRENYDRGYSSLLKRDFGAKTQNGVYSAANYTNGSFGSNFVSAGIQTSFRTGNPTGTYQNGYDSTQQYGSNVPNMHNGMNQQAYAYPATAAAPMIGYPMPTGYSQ
UniProt P54132: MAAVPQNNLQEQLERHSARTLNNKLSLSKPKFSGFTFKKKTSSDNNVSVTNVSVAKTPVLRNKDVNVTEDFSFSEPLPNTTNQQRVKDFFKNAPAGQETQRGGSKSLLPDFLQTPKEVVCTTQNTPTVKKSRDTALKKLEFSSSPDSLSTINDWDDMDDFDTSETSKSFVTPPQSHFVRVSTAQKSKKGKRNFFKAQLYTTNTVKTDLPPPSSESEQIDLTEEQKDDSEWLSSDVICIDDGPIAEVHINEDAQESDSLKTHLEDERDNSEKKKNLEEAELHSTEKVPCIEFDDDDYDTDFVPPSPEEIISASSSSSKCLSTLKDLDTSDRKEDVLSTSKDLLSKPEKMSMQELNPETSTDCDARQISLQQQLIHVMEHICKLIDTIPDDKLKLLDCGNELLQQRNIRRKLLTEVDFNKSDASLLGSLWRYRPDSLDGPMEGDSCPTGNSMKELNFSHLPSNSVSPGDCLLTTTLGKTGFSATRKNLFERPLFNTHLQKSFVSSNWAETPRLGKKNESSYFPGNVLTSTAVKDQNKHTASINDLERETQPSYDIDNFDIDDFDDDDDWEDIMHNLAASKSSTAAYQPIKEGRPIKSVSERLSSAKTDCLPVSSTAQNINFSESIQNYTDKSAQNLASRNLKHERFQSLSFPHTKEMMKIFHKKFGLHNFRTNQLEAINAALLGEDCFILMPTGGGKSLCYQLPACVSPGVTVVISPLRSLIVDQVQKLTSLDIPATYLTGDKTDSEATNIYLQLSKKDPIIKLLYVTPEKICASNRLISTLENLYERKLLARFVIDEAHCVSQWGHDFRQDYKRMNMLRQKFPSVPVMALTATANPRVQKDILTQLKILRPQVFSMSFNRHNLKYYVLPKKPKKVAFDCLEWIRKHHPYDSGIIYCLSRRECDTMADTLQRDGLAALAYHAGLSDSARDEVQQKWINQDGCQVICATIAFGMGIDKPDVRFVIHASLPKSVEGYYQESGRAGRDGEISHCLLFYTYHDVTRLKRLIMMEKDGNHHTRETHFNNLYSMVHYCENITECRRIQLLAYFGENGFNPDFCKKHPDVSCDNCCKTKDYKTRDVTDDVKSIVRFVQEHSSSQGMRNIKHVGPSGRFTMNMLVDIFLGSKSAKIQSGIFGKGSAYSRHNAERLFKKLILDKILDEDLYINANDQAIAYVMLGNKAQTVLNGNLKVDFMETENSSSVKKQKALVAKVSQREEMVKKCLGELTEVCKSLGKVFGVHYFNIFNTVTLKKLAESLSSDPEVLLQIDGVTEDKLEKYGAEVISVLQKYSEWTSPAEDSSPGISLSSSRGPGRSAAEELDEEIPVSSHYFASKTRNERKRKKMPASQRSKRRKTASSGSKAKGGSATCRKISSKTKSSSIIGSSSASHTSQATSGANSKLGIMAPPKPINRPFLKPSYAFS
UniProt Q01196: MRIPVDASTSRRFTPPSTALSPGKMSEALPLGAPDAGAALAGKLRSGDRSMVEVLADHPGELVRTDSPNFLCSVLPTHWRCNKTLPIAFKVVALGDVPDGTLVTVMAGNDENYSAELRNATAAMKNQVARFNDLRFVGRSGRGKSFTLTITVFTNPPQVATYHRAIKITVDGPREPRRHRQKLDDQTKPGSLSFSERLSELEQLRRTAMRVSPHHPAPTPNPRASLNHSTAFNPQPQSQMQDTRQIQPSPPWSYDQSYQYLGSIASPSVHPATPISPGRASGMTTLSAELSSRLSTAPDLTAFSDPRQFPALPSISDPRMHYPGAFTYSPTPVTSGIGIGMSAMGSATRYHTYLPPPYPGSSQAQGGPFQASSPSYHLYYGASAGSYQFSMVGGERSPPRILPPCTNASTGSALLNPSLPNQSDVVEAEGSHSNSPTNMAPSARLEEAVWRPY
UniProt Q13951: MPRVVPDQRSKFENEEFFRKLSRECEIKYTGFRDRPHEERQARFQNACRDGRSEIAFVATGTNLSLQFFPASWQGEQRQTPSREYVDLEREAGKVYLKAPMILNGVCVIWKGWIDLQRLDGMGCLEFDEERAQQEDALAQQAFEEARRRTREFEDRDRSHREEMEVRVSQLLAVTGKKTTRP

B1: SRRT (protein, UniProt Q9BXP5 1-876)
chain: MGDSDDEYDRRRRDKFRRERSDYDRSRERDERRRGDDWNDREWDRGRERRSRGEYRDYDRNRRERFSPPRHELSPPQKRMRRDWDEHSSDPYHSGYEMPYAGGGGGPTYGPPQPWGHPDVHIMQHHVLPIQARLGSIAEIDLGVPPPVMKTFKEFLLSLDDSVDETEAVKRYNDYKLDFRRQQMQDFFLAHKDEEWFRSKYHPDEVGKRRQEARGALQNRLRVFLSLMETGWFDNLLLDIDKADAIVKMLDAAVIKMEGGTENDLRILEQEEEEEQAGKPGEPSKKEEGRAGAGLGDGERKTNDKDEKKEDGKQAENDSSNDDKTKKSEGDGDKEEKKEDSEKEAKKSSKKRNRKHSGDDSFDEGSVSESESESESGQAEEEKEEAEEALKEKEKPKEEEWEKPKDAAGLECKPRPLHKTCSLFMRNIAPNISRAEIISLCKRYPGFMRVALSEPQPERRFFRRGWVTFDRSVNIKEICWNLQNIRLRECELSPGVNRDLTRRVRNINGITQHKQIVRNDIKLAAKLIHTLDDRTQLWASEPGTPPLPTSLPSQNPILKNITDYLIEEVSAEEEELLGSSGGAPPEEPPKEGNPAEINVERDEKLIKVLDKLLLYLRIVHSLDYYNTCEYPNEDEMPNRCGIIHVRGPMPPNRISHGEVLEWQKTFEEKLTPLLSVRESLSEEEAQKMGRKDPEQEVEKFVTSNTQELGKDKWLCPLSGKKFKGPEFVRKHIFNKHAEKIEEVKKEVAFFNNFLTDAKRPALPEIKPAQPPGPAQILPPGLTPGLPYPHQTPQGLMPYGQPRPPILGYGAGAVRPAVPTGGPPYPHAPYGAGRGNYDAFRGQGGYPGKPRNRMVRGDPRAIVEYRDLDAPDDVDFF

These are yes or no findings as the source states them, for the method shown. Binding seen in cells or lysates may run through a third protein. Here binding means that the protein was enriched with, or labelled near, the bait; the list need not be complete.

Among the data in publication PMC10901781 are binding values, retold here.

For this assay, the target named is T1, PHF6 (human (endogenous in THP-1)). Briefly: affinity purification with mass spectrometry; agarose-conjugated anti-PHF6 antibody against isotype IgG; THP-1 nuclear protein extracts (Benzonase-treated), 4 °C overnight, five washes of 1x PBS with 1% NP-40; gel slices, trypsin, LC-MS/MS.
On to DDX5 (from UniProt P17844 1-614), for which the binding entry is on record as “binds”.

With BLM (from UniProt P54132 1-1417), the binding result was “binds”.

Take RUNX1 (from UniProt Q01196 1-453): the binding result is reported as “binds”. In the case of CBFB (from UniProt Q13951 1-182), the binding result is on record as “binds”. As for B1, the binding result is listed as “binds”.
